Experimental data as given in paper PMC7819943, “Rice protein-binding microarrays: a tool to detect cis-acting elements near promoter regions in rice”.
This is one part of the list.

The chains behind the UniProt entries cited, without tags or fusion partners.
UniProt Q0JBA9, entry or part of it: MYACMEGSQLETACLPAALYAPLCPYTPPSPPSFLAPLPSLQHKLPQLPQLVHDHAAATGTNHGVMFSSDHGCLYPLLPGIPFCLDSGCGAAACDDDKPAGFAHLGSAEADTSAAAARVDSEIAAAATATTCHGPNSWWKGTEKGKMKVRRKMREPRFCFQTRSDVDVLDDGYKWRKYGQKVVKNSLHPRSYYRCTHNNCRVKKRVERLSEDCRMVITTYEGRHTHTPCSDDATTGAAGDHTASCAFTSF

These sequences were tested against OsWRKY34 (Oryza sativa, UniProt Q0JBA9 1-250) (assay: protein-binding microarray (RPBM); PBS, 2% BSA, 51.3 ng/ul salmon testes DNA, 50 uM zinc acetate, 200 nM TF, 25 C, 1 h; high values mean tight binding). Conditions: protein: recombinant; tags: N-terminal polyhistidine and DsRed monomer fusion (pET32a); label: CyDye5-dUTP incorporated in the synthesized complementary strand; 3' TTTTT single-stranded linker to array surface; dsDNA, one strand shown.
Procedure, shortened: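 An Axon 4000B scanner gave the binding signal as per-feature fluorescence intensity in arbitrary units. This followed washing of a custom Agilent array that had been incubated for 1 h at 25 °C with 200 nM protein in PBS, 2% BSA, salmon testes DNA and 50 µM zinc acetate. The proteins were transcription factors fused at the N-terminus to polyhistidine and DsRed, expressed in E. coli BL21-CodonPlus and purified on Ni–NTA.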

Row | Sequence | binding signal
1 | GTCCAACTCTGGTCCAACGCTGTGAAAAGCCTGACCTCACCGGAGTCACCTAGTGCAG | 9160 fluorescence intensity (a.u.)
2 | ATGGAGATAATATTCTCTTTTTTGACCGGCTCATCTATCTCGGAGTCACCTAGTGCAG | 10800 fluorescence intensity (a.u.)
3 | CATGTGTGGTGAGCATATTTGTTTGTACTGTTGTATTTTACGGAGTCACCTAGTGCAG | 9560 fluorescence intensity (a.u.)
4 | ACAAAATTTTTATATGTTTCAGAGGTTGATTTTTTTGTTTCGGAGTCACCTAGTGCAG | 8890 fluorescence intensity (a.u.)
5 | ATTTGGTCTGTTTATTTCAGTTTGCGTGCCAGAAGATTTCCGGAGTCACCTAGTGCAG | 11200 fluorescence intensity (a.u.)
6 | AGTTTCCATATCCAATGTTTGACCGTCCATCTTATTTAGACGGAGTCACCTAGTGCAG | 10900 fluorescence intensity (a.u.)
7 | ACACACACACATCTCCATCTCCACATCTCCATTTCCATTTCGGAGTCACCTAGTGCAG | 8310 fluorescence intensity (a.u.)
8 | CGTCCTTGCCGCCGCCATGGCGTGCAGGCCGGCCATGTGCCGGAGTCACCTAGTGCAG | 8180 fluorescence intensity (a.u.)
9 | AATCTGTAATTTTGTTTTTATTATTACACTACATTTAATACGGAGTCACCTAGTGCAG | 9120 fluorescence intensity (a.u.)
10 | ACCGGTGGCTTTGTTTGGTTCCACGGTCTTCAGGTTGGGACGGAGTCACCTAGTGCAG | 8130 fluorescence intensity (a.u.)
11 | GTCCTACTTTTGCCGCCCTTATGCTTTTTAATTAGTTCTTCGGAGTCACCTAGTGCAG | 9490 fluorescence intensity (a.u.)
12 | TCGAGGGACGAACGACAGACTTTCTTTTCATTTGTTTCTTCGGAGTCACCTAGTGCAG | 9770 fluorescence intensity (a.u.)
13 | ACTAAGCTAAGGTTTACCACAACCATCTCGTTTGTTGATTCGGAGTCACCTAGTGCAG | 8540 fluorescence intensity (a.u.)
14 | ACTTATTTCGACTTTGTAACGGCAAATTCAATACTGCGCACGGAGTCACCTAGTGCAG | 8290 fluorescence intensity (a.u.)
15 | CCCCACTCTATTACCCGCCCTTTTCTGCTCCGCGCCATCTCGGAGTCACCTAGTGCAG | 8180 fluorescence intensity (a.u.)
16 | CGTGTGCTTTTTTTTCATCTTTTTCGCTTTAAATTTGTTCCGGAGTCACCTAGTGCAG | 11100 fluorescence intensity (a.u.)
17 | ATAATTTTCCTTGCTTTCACCATTGCTCTCAAATCTGGCTCGGAGTCACCTAGTGCAG | 9380 fluorescence intensity (a.u.)
18 | ACCAGTCAACGGTCAAAGTTTCAAACCTCTATATAGTTTCCGGAGTCACCTAGTGCAG | 9520 fluorescence intensity (a.u.)
19 | TCTCCTTCGTATACGCAATCGGTGTCTCGATCCATATTCCCGGAGTCACCTAGTGCAG | 9580 fluorescence intensity (a.u.)
20 | TATTCACTTTCATATTTATCATATAGCTAAAAATTTTTACCGGAGTCACCTAGTGCAG | 8300 fluorescence intensity (a.u.)
21 | CACAGGTTTTGAAGTTGGGGAAGGTATTATACCCGATGTGCGGAGTCACCTAGTGCAG | 8660 fluorescence intensity (a.u.)

Row | Sequence | binding signal
22 | GCCGCTTGCCTTTTCTTCTTTTTTTCATTTCTCTATTTACCGGAGTCACCTAGTGCAG | 10400 fluorescence intensity (a.u.)
23 | TCACATCCCAGGCTCGGACCAAATCTCAACTCCTGCTAATCGGAGTCACCTAGTGCAG | 10400 fluorescence intensity (a.u.)
24 | GCGCACCTGATGAATCTGCCCTGCGCCAATCGCTCGTGCTCGGAGTCACCTAGTGCAG | 8460 fluorescence intensity (a.u.)
25 | GATTAACCAATCTTTTATCATATTTATTGGTGTATTTATACGGAGTCACCTAGTGCAG | 8950 fluorescence intensity (a.u.)
26 | CAACTTCTGTACCAATATTTTCTTCCCAACCAATCAAAACCGGAGTCACCTAGTGCAG | 8660 fluorescence intensity (a.u.)
27 | GACCTTACCTCTAGCTGAGCGGGCTACTCTCGCGTCGTCTCGGAGTCACCTAGTGCAG | 8100 fluorescence intensity (a.u.)
28 | GTTGCCGCCACATTAAATTGCTTCTCTTGATCTCAAGCGTCGGAGTCACCTAGTGCAG | 8670 fluorescence intensity (a.u.)
29 | ACGATCTCTCCTTGTTTTTTACTCCTCCTCAGATAATGTTCGGAGTCACCTAGTGCAG | 8610 fluorescence intensity (a.u.)
30 | CATCCATCTCCATCAACTGATCAGCACACAGCCACATTGTCGGAGTCACCTAGTGCAG | 8250 fluorescence intensity (a.u.)
31 | GAGTAAAGTGTATTGTTGGTCTCTAAATTTGTTCGTCCGTCGGAGTCACCTAGTGCAG | 9450 fluorescence intensity (a.u.)
32 | TGTCTATTTCATTAAACCTCGTCCTTTCTTTCATTCCGGACGGAGTCACCTAGTGCAG | 8140 fluorescence intensity (a.u.)
33 | TTGGCCAGCCTTGGGGATGTGGTTGTGGCTGGCTAGATTTCGGAGTCACCTAGTGCAG | 8770 fluorescence intensity (a.u.)
34 | CTCGTCTCTCCTCACTCCACTCGACTCCTCACTCATCCTACGGAGTCACCTAGTGCAG | 8270 fluorescence intensity (a.u.)
35 | TTAGTTTCCTCTTGTTGATCAAACGACATATTCGCCGTGTCGGAGTCACCTAGTGCAG | 10100 fluorescence intensity (a.u.)
36 | AAAATATCTTTACTTATTACAACGACTGACATTTTTCATACGGAGTCACCTAGTGCAG | 8580 fluorescence intensity (a.u.)
37 | ATTCCATCCCCGAGTGACAATGCAATCAGTTACAAGTTACCGGAGTCACCTAGTGCAG | 8250 fluorescence intensity (a.u.)
38 | CAAATTTTTTCGGCGCTATAATATTTCTGTAAATATTAAACGGAGTCACCTAGTGCAG | 8140 fluorescence intensity (a.u.)
39 | CTGGCCTATATTCATTCTATTCATAATTATAATTGCCATCCGGAGTCACCTAGTGCAG | 8930 fluorescence intensity (a.u.)
40 | CCCCAGCTTCACTGTTCACACACATCAATGCATCACCAGCCGGAGTCACCTAGTGCAG | 9570 fluorescence intensity (a.u.)
41 | GTTGTTGCAGTTCCTACACGTACCTAGTATGTTTATTTGACGGAGTCACCTAGTGCAG | 8050 fluorescence intensity (a.u.)
42 | ACCCCACCTGTCAGACAACCCCACCGCCGCTTCGCTTCACCGGAGTCACCTAGTGCAG | 17300 fluorescence intensity (a.u.)

Single values from the results shown.
In binding signal, CTGGCCTATATTCATTCTATTCATAATTATAATTGCCATCCGGAGTCACCTAGTGCAG reads 8930 fluorescence intensity (a.u.)
In binding signal, GACCTTACCTCTAGCTGAGCGGGCTACTCTCGCGTCGTCTCGGAGTCACCTAGTGCAG reads 8100 fluorescence intensity (a.u.)
